Laboratory results from the supplement of paper PMC4604168 (melanoma cell lines).
Some of the results follow. Many values rest on one well or one pass, so single values are uncertain.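 The apoptosis fraction was the count of cleaved-PARP antibody-stained nuclei relative to all DNA-stained nuclei, imaged in 1,536-well plates. Screening doses were set so most cells survived, and baseline and induced cleaved-PARP levels vary greatly across cell lines.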

Legend:
Assay in all cases: cleaved PARP positive nuclei fraction relative to DMSO control; melanoma cells; higher = more apoptosis
Settings in all cases: library dose: low library concentration; 72 h
COLO792 = system: COLO792
COLO800 = system: COLO800
COLO829 = system: COLO829
G361 = system: G361
IPC-298 = system: IPC-298
IST-MEL1 = system: IST-MEL1
LB2518-MEL = system: LB2518-MEL
LOXIMVI = system: LOXIMVI
MZ2-MEL = system: MZ2-MEL
MeWo = system: MeWo
RPMI7951 = system: RPMI7951
RVH-421 = system: RVH-421
SkMel28 = system: SkMel28
SkMel2 = system: SkMel2
SkMel30 = system: SkMel30
SkMel5 = system: SkMel5
UACC257 = system: UACC257
UACC62 = system: UACC62

SMILES | cleaved PARP positive nuclei fraction (COLO792) [%] | cleaved PARP positive nuclei fraction (COLO800) [%] | cleaved PARP positive nuclei fraction (COLO829) [%] | cleaved PARP positive nuclei fraction (G361) [%] | cleaved PARP positive nuclei fraction (IPC-298) [%] | cleaved PARP positive nuclei fraction (IST-MEL1) [%] | cleaved PARP positive nuclei fraction (LB2518-MEL) [%] | cleaved PARP positive nuclei fraction (LOXIMVI) [%] | cleaved PARP positive nuclei fraction (MZ2-MEL) [%] | cleaved PARP positive nuclei fraction (MeWo) [%] | cleaved PARP positive nuclei fraction (RPMI7951) [%] | cleaved PARP positive nuclei fraction (RVH-421) [%] | cleaved PARP positive nuclei fraction (SkMel28) [%] | cleaved PARP positive nuclei fraction (SkMel2) [%] | cleaved PARP positive nuclei fraction (SkMel30) [%] | cleaved PARP positive nuclei fraction (SkMel5) [%] | cleaved PARP positive nuclei fraction (UACC257) [%] | cleaved PARP positive nuclei fraction (UACC62) [%]
CCCCCCCCCCCCCCCCCCOP(=O)([O-])OC1CC[N+](C)(C)CC1 [Perifosine] + COC(=O)c1sccc1S(=O)(=O)Nc1ccc(Nc2ccccc2)cc1OC [GSK0660] (first compound 0.4 µM, partner dose 1 µM) | 128 | 121 | 87.6 | 63.4 | 96 | 69 | 70.3 | 184 | 98.1 | 247 | 74.2 | 144 | 232 | 59.2 | 112 | 162 | 184 | 108
Cc1ccc(Nc2nccc(N(C)c3ccc4c(C)n(C)nc4c3)n2)cc1S(N)(=O)=O [Pazopanib] + N#Cc1c(O)c2c(-c3ccc(-c4ccccc4O)cc3)csc2[nH]c1=O [A769662] (first compound 0.4 µM, partner dose 2 µM) | 204 | 81.9 | 108 | 84.4 | 38.1 | 94.7 | 45.8 | 179 | 83.6 | 74.7 | 146 | 63.1 | 136 | 65.1 | 43.5 | 292 | 249 | 112
N#CC[C@H](C1CCCC1)n1cc(-c2ncnc3[nH]ccc23)cn1 [ruxolitinib] + COc1cc2ncnc(Nc3ccc(Oc4ccccc4)cc3)c2cc1OC [SrcI1] (first compound 1 µM, partner dose 2 µM) | 47.4 | 49.9 | 60.3 | 155 | 49 | 71.8 | 35 | 88.6 | 47.2 | 146 | 145 | 148 | 176 | 14.9 | 108 | 60.1 | 42.2 | 106
O=C(/C=C/c1cccnc1)NCCCCC1CCN(C(=O)c2ccccc2)CC1 + CCc1ccc(CCOc2ccc(CC3SC(=O)NC3=O)cc2)nc1 [pioglitazone] (first compound 0.01 µM, partner dose 2 µM) | 470 | 597 | 310 | 1880 | 345 | 34.5 | 221 | 92.2 | 614 | 230 | 45.2 | 166 | 249 | 391 | 53.9 | 88.7 | 102 | 134
COc1cc([C@@H]2c3cc4c(cc3[C@@H](O[C@@H]3O[C@@H]5CO[C@@H](C)O[C@H]5[C@H](O)[C@H]3O)[C@H]3COC(=O)[C@H]23)OCO4)cc(OC)c1O [etoposide] + CCN(CC)CCCCNc1ncc2cc(-c3cc(OC)cc(OC)c3)c(NC(=O)NC(C)(C)C)nc2n1 [PD173074] (first compound 0.02 µM, partner dose 0.1 µM) | 94 | 147 | 59 | 112 | 88.1 | 88.6 | 32.5 | 246 | 54.6 | 330 | 94.7 | 43.1 | 35.9 | 115 | 81.2 | 78.3 | 332 | 85.2
Cc1cc(Nc2cc(N3CCN(C)CC3)nc(Sc3ccc(NC(=O)C4CC4)cc3)n2)n[nH]1 [Tozasertib] + COc1cc(N2CCC(N3CCN(C)CC3)CC2)ccc1Nc1ncc(Cl)c(Nc2ccccc2S(=O)(=O)C(C)C)n1 [NVP-TAE684] (first compound 0.006 µM, partner dose 0.08 µM) | 112 | 97 | 72.3 | 120 | 48.9 | 83.1 | 81 | 92.1 | 126 | 102 | 76.6 | 22.4 | 92.4 | 109 | 93.2 | 76.4 | 105 | 145
O=C(Nc1cc(C(F)(F)F)cc(C(F)(F)F)c1)c1cc(Cl)ccc1O + O=C1NC(=O)/C(=C/c2ccc(-c3ccc(F)cc3O)o2)S1 [AS252424] (first compound 0.016 µM, partner dose 1 µM) | 61.7 | 37.5 | 75.1 | 109 | 133 | 86.1 | 39.7 | 108 | 116 | 85.5 | 67.7 | 97.2 | 100 | 21 | 43.7 | 144 | 63.2 | 339
Cc1cc(Nc2cc(N3CCN(C)CC3)nc(Sc3ccc(NC(=O)C4CC4)cc3)n2)n[nH]1 [Tozasertib] + O=C1NC(=O)/C(=C/c2ccc(-c3ccc(F)cc3O)o2)S1 [AS252424] (first compound 0.006 µM, partner dose 1 µM) | 87.5 | 127 | 184 | 74.6 | 47.1 | 62.3 | 157 | 100 | 175 | 258 | 28.3 | 116 | 51.7 | 44.6 | 76.4 | 149 | 150 | 109
CCCCCCCCCCCCCCCCCCOP(=O)([O-])OC1CC[N+](C)(C)CC1 [Perifosine] + CC(C)CCN1c2nc(Nc3cc(F)c(O)c(F)c3)ncc2N(C)C(=O)C1C [BID1870] (first compound 0.4 µM, partner dose 0.2 µM) | 35 | 85.6 | 186 | 200 | 65.5 | 97.2 | 92.4 | 47.5 | 188 | 565 | 147 | 111 | 16.1 | 88.8 | 91.7 | 74.1 | 59.8 | 206
O=c1[nH]nc(Sc2ncc([N+](=O)[O-])s2)n1-c1ccc2c(c1)OCCO2 + Cn1cc(/C=C2\C(=O)Nc3cccnc32)c2ccccc21 [GW441756] (first compound 0.2 µM, partner dose 0.4 µM) | 80 | 50.3 | 41.8 | 108 | 100 | 75.1 | 127 | 52.2 | 138 | 67.3 | 71.9 | 53.7 | 73.5 | 24.9 | 40.1 | 78.7 | 251 | 163
COc1cc([C@@H]2c3cc4c(cc3[C@@H](O[C@@H]3O[C@@H]5CO[C@@H](C)O[C@H]5[C@H](O)[C@H]3O)[C@H]3COC(=O)[C@H]23)OCO4)cc(OC)c1O [etoposide] + O=S(=O)(c1ccccc1)N(CC(F)(F)F)c1ccc(C(O)(C(F)(F)F)C(F)(F)F)cc1 [T0901317] (first compound 0.02 µM, partner dose 1.4 µM) | 62.7 | 38 | 205 | 121 | 196 | 97.3 | 33.6 | 17.2 | 124 | 71.7 | 131 | 201 | 122 | 24.3 | 67 | 165 | 79.1 | 149
O=c1[nH]nc(Sc2ncc([N+](=O)[O-])s2)n1-c1ccc2c(c1)OCCO2 + O=S(=O)(c1ccccc1)N(CC(F)(F)F)c1ccc(C(O)(C(F)(F)F)C(F)(F)F)cc1 [T0901317] (first compound 0.2 µM, partner dose 1.4 µM) | 98.4 | 98.8 | 78.6 | 184 | 32.6 | 186 | 99.5 | 161 | 97.9 | 147 | 68.5 | 145 | 152 | 137 | 37.3 | 77.4 | 92.6 | 85.7
CCCCCCCCCCCCCCCCCCOP(=O)([O-])OC1CC[N+](C)(C)CC1 [Perifosine] + CCN(CC)CCCCNc1ncc2cc(-c3cc(OC)cc(OC)c3)c(NC(=O)NC(C)(C)C)nc2n1 [PD173074] (first compound 0.4 µM, partner dose 0.1 µM) | 55.9 | 43.6 | 74.2 | 71.4 | 86.7 | 110 | 46.5 | 85.9 | 180 | 41.5 | 88.4 | 102 | 165 | 98.5 | 81.5 | 200 | 94.2 | 142
Cc1cc(Nc2cc(N3CCN(C)CC3)nc(Sc3ccc(NC(=O)C4CC4)cc3)n2)n[nH]1 [Tozasertib] + Cn1cc(/C=C2\C(=O)Nc3cccnc32)c2ccccc21 [GW441756] (first compound 0.006 µM, partner dose 0.4 µM) | 102 | 265 | 94.9 | 119 | 302 | 190 | 73.8 | 104 | 131 | 171 | 229 | 116 | 131 | 20.7 | 78.5 | 178 | 120 | 94.1
N#CC[C@H](C1CCCC1)n1cc(-c2ncnc3[nH]ccc23)cn1 [ruxolitinib] + O=C1NC(=O)/C(=C/c2ccc(-c3ccc(F)cc3O)o2)S1 [AS252424] (first compound 1 µM, partner dose 1 µM) | 47.3 | 23.1 | 76.3 | 106 | 97.5 | 82.1 | 45.3 | 121 | 87.4 | 178 | 108 | 52.1 | 122 | 132 | 198 | 82.7 | 327 | 178
CCCCCCCCCCCCCCCCCCOP(=O)([O-])OC1CC[N+](C)(C)CC1 [Perifosine] + COc1ccc2c(c1)CCC1C2CCC2(C)C(NCCCCCCN3C(=O)C=CC3=O)CCC12 [U73122] (first compound 0.4 µM, partner dose 0.4 µM) | 107 | 133 | 213 | 35.1 | 46.2 | 56.9 | 69.2 | 216 | 148 | 119 | 399 | 86.5 | 127 | 118 | 20.5 | 81.2 | 317 | 92.5
N#CC[C@H](C1CCCC1)n1cc(-c2ncnc3[nH]ccc23)cn1 [ruxolitinib] + COc1ccc(COc2ccc(Cc3cnc(N)nc3N)cc2OC)cc1 [GW2580] (first compound 1 µM, partner dose 1 µM) | 46.1 | 30.1 | 75.6 | 81.3 | 36.4 | 81.4 | 55.7 | 46.8 | 137 | 100 | 287 | 89 | 124 | 106 | 278 | 84.4 | 318 | 131
CCCCCCCCCCCCCCCCCCOP(=O)([O-])OC1CC[N+](C)(C)CC1 [Perifosine] + COc1ccc(-c2ccc3c(N4CCOCC4)nc(N4C[C@@H](C)O[C@@H](C)C4)nc3n2)cc1CO [KU0063794] (first compound 0.4 µM, partner dose 0.02 µM) | 137 | 214 | 39.9 | 107 | 51.9 | 36.7 | 140 | 45.7 | 148 | 28.4 | 57 | 63.6 | 145 | 78.7 | 40.3 | 84.1 | 206 | 128

Individual results from the results shown.
Cc1cc(Nc2cc(N3CCN(C)CC3)nc(Sc3ccc(NC(=O)C4CC4)cc3)n2)n[nH]1 [Tozasertib] + Cn1cc(/C=C2\C(=O)Nc3cccnc32)c2ccccc21 [GW441756] (first compound 0.006 µM, partner dose 0.4 µM) – cleaved PARP positive nuclei fraction (MZ2-MEL) [%]: 131
Cc1ccc(Nc2nccc(N(C)c3ccc4c(C)n(C)nc4c3)n2)cc1S(N)(=O)=O [Pazopanib] + N#Cc1c(O)c2c(-c3ccc(-c4ccccc4O)cc3)csc2[nH]c1=O [A769662] (first compound 0.4 µM, partner dose 2 µM) – cleaved PARP positive nuclei fraction (SkMel30) [%]: 43.5
